Assay results published in patent US4120864A, “1,2,4-4H-triazole derivatives” (Rohm and Haas Company, priority 1972, dated 1978).
Read-outs that look alike come from different tables or passages of the source. At least one read-out could not be matched to a standard name with certainty.

Experiments:
[1] = system: wheat leaf rust, Puccinia recondita; format: in vivo; settings: foliar, 0.25 lb.
[2] = system: wheat leaf rust, Puccinia recondita; format: in vivo; settings: foliar

**Q.** Which results are given for `CCCCn1cnnc1Sc1ccc([N+](=O)[O-])cc1[N+](=O)[O-]` [Example 127, 3-(2,4-dinitrophenylmercapto)-4-n-butyl-1,2,4-triazole]?
**A.** % Control (without rain) [1]: 99%; % Control (with 1" of rain) ([2]; 0.25 lb.): 60%; % Control (with 1" of rain) ([2]; 0.25 lb., listed as 113): 98%; % Control (with 1" of rain) ([2]; 1 lb.): 95%
